According to PubChem BioAssay AID2685 (National Center for Advancing Translational Sciences (NCATS), 2010):
Values joined by “and” are separate entries in the source; they are usually repeats but may differ in a detail not shown here. Identical values can stand only once. The list shows a part of the results. The main result of the screen is listed elsewhere. These columns were measured beside it and carry no call. Most of these compounds were active or inconclusive in the main read-out, so they are no random draw. The note in brackets gives the kind of curve behind each potency; many fits are weak.

Test: qHTS Assay for Lipid Storage Modulators in Drosophila S3 Cells;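 on cell number change: cells counted by Cell Tracker Red CMTPX staining in the red channel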
Details: BODIPY lipid droplet fluorescence, 18-24 h; for cell number change: measured here: cell count max response, cells fed with added oleic acid
In short: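 Drosophila S3 cells loaded with oleic acid (400 uM, as added) and compounds at several concentrations; lipid droplets imaged by 488-nm laser-scanning cytometry, 500–530 nm intensity and object ratio to cell channel. Percent activity normalized to 20 uM Triacsin C.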

[1] = measured here: cell number channel AC50, cells fed with added oleic acid
[2] = measured here: lipid fluorescence (Fed channel) AC50, cells fed with added oleic acid

Row | Compound | cell number change | AC50 [1] | AC50 [2]
1 | O=C(NCCCN1CCCC1=O)C1CCN(S(=O)(=O)N2CCOCC2)CC1 | -75.8% | 25.9 µM [falling, single point] | 
2 | c1ccc2c(c1)nc(Nc1ccc3c(c1)OCO3)c1nnnn12 | 152% | 0.58 µM [rising, full curve] | 1.46 µM [rising, full curve]
3 | CN(C)C(=O)C1Cc2ccccc2CN1S(=O)(=O)c1ccc(F)cc1 (centres undefined) | 18.4% |  | 
4 | COC(=O)CSc1nc2ccc(N)cc2s1 |  |  | 6.51 µM [falling, single point]
5 | CC(C)(C)c1cc[n+](-c2[nH]c(=O)sc2/C=N/N=C(\[O-])c2ccccc2)cc1 | 21% |  | 29.1 µM [rising, single point]
6 | CC(C)SCc1nc2ccccc2[nH]1 | 32.3% | 29.1 µM [rising, partial curve] | 0.651 µM [rising, full curve, poor fit]
7 | O=C(COC(=O)c1n[nH]c2ccccc12)c1cc(F)ccc1F | -25.1% | 3.26 µM [falling, single point] | 2.91 µM [falling, partial curve, poor fit]
8 | COc1ccc2c(Cl)c(-c3nnc(SCC(N)=O)n3C)sc2c1 | -77.1% | 7.31 µM [falling, partial curve] | 2.31 µM [falling, partial curve]
9 | CC(C)CN(C(=O)CN1C(=O)NC2(CCc3ccccc32)C1=O)C1CCS(=O)(=O)C1 (centres undefined) | -28.6% | 0.00461 µM [falling, full curve, poor fit] | 0.00461 µM [falling, full curve, poor fit]
10 | Cc1ccc(C)c(NC(=S)N2CCC(NC(=O)c3ccccc3)CC2)c1 | 21.2% |  | 
11 | CCOc1ccc(OCCCCN2CCCC2)cc1 | -6.28% |  | 0.0517 µM [falling, full curve, poor fit]
12 | COc1ccc(CCN(Cc2cc3cc(C)ccc3[nH]c2=O)C(=O)N2CCCC2)cc1OC | -7.41% |  | 4.61 µM [rising, partial curve, poor fit]
13 | CC(C)(C)c1ccc(OCCON2C(=O)CCC2=O)c(Cl)c1 | -108% |  | 
14 | COc1ccccc1C(=O)NCC(=O)N/N=C/c1cc(Br)ccc1OCc1ccccc1 | -17.2% | 6.51 µM [rising, partial curve, poor fit] | 
15 | O=C(N/N=C/c1ccc(Cl)cc1Cl)c1ccncc1 | -5.77% |  | 16.4 µM [rising, single point]
16 | CCCC(C)c1nnc(NC(=O)C(=O)OCC)s1 (centres undefined) | 27.9% |  | 25.1 µM [rising, single point]
17 | CCC(C)NC(=O)COc1ccc(OCc2ccccc2)cc1 (centres undefined) | 17.5% |  | 
18 | O=C(NC1CCCC1)c1ccc(COCC(F)(F)F)o1 | 4.84% |  | 7.31 µM [falling, partial curve]
19 | Cc1ccccc1C=O | -37.4% | 25.9 µM [falling, single point] | 4.61 µM [falling, single point]

Row | Compound | cell number change | AC50 [1] | AC50 [2]
20 | Oc1ccc(C[C@H]2CNCCN2CCc2cc(C(F)(F)F)cc(C(F)(F)F)c2)cc1 | 7.94% |  | 14.6 µM [rising, single point]
21 | CCOc1cc(/C=N/NC(=O)c2nnn(-c3nonc3N)c2C)ccc1OCc1ccc(F)cc1 | 2.36% |  | 0.116 µM [rising, full curve, poor fit]
22 | Cn1c2c(c(=O)n(C)c1=O)C(C(F)(F)F)(C(F)(F)F)N=C(CCC1CCCCC1)N2 |  | 6.51 µM [rising, single point] | 2.06 µM [rising, partial curve]
23 | COCCC(=O)N1CCC(Oc2ccc(C(=O)NCCC3=CCCCC3)cc2)CC1 |  |  | 4.11 µM [rising, single point]
24 | CCN(CC)CCCNC(=O)CNC(=S)N(CCCN1CCOCC1)Cc1cccs1 | -4.15% | 0.731 µM [rising, partial curve, poor fit] | 
25 | CCCCN(C(=O)c1ccc(N2CCCC2=O)cc1)c1c(N)n(CC(C)C)c(=O)[nH]c1=O | 2.34% |  | 
26 | O=[N+]([O-])c1ccc(C2Oc3ccccc3C3CC(c4ccccc4)=NN32)s1 (centres undefined) | -16.1% | 2.91 µM [rising, single point] | 3.66 µM [rising, single point]
27 | Cc1c(NC(=O)c2ccc(COc3ccc4ccccc4c3)o2)c(=O)n(-c2ccccc2)n1C | 1.36% |  | 
28 | COc1cc(NC(=O)CN2C(=O)NC(c3ccccc3)(c3ccccc3)C2=O)cc(OC)c1 | 29.8% |  | 29.1 µM [rising, single point]
29 | CC(=O)NC(Cc1ccc(F)cc1)C(=O)NC1CCN(C(=O)Nc2ccc(F)cc2)CC1 (centres undefined) | 17.8% | 1.84 µM [rising, partial curve, poor fit] | 6.51 µM [falling, single point]
30 | O=C(N/C(=C/c1ccco1)C(=O)N1CCCC1)c1cccs1 | -31.1% | 29.1 µM [falling, single point] | 13 µM [falling, partial curve, poor fit]
31 | CC(Nc1nc(N2CCCCC2)nc2ccccc12)c1ccccc1 (centres undefined) |  | 1.03 µM [rising, full curve, poor fit] | 29.1 µM [falling, single point]
32 | O=C(NCc1ccccc1)c1onc(CSc2ccccn2)c1C(=O)NCc1ccccc1 | -0.992% |  | 6.51 µM [rising, single point]
33 | Cc1cc(C)c[n+](-c2nc3ccccc3nc2C(=C=[N-])C#N)c1 | -6.89% and -15.3% |  | 29.1 µM [rising, single point]
34 | CNC(=S)NCC(O)c1ccc([N+](=O)[O-])cc1 (centres undefined) | 8.55% |  | 
35 | O=C1CCCC(=NCc2ccco2)C1 | 11.9% |  | 1.16 µM [falling, full curve, poor fit]
36 | COc1cc(OC)nc(NC(=O)C(C)C)n1 | -12% |  | 16.4 µM [falling, single point]
37 | CCOCCn1c(C)c(C(=O)OCC)c2cc(O)c3ccccc3c21 | -50.6% | 14.6 µM [falling, partial curve] | 4.11 µM [falling, single point]
38 | NC(=O)COC(=O)CCCc1c[nH]c2ccccc12 | -15.1% | 0.058 µM [falling, full curve, poor fit] | 

Row | Compound | cell number change | AC50 [1] | AC50 [2]
39 | C=CCNC(=O)C1CCN(S(C)(=O)=O)CC1 | 4.59% |  | 0.116 µM [falling, partial curve, poor fit]
40 | CCCN(Cc1ccc(C)cc1)C(=O)c1ccc(CNS(=O)(=O)c2ccc(C(C)=O)cc2)cc1 | -8.81% |  | 29.1 µM [falling, single point]
41 | COc1cc(NC(=O)C2CCC(CNS(=O)(=O)c3csc(C(N)=O)c3)CC2)cc(OC)c1 (centres undefined) | 8.96% |  | 
42 | C=CCC(=O)OCCCCCCOc1ccc(C(=O)O)cc1 | -4.95% |  | 3.66 µM [falling, partial curve]
43 | COc1ccc(NC(=O)c2ccc(N(C)S(C)(=O)=O)cc2)cc1OC | 10.4% |  | 5.17 µM [rising, full curve]
44 | CCN1C(=O)CS/C1=C(\C#N)S(=O)(=O)c1ccccc1 | 35.8% | 23.1 µM [rising, single point] | 32.6 µM [falling, single point]
45 | CCC(Sc1nc2ncccc2[nH]1)C(=O)NC1CCC(C)CC1 (centres undefined) | 15.3% |  | 29.1 µM [falling, single point]
46 | O=C(NCCc1ccco1)c1nn(Cc2ccccc2)c(=O)c2ccccc12 | -10.8% |  | 6.51 µM [falling, partial curve, poor fit]
47 | CN1C(=O)/C(=C\c2cc(N=Nc3ccccc3)ccc2O)SC1=S | -16.2% | 1.3 µM [falling, full curve] | 0.231 µM [falling, full curve, poor fit]
48 | Nc1ccn(Cc2ccccc2)n1 | -10.7% | 4.11 µM [rising, single point] | 2.91 µM [rising, single point]
49 | Cc1ccc2nc(C)c3c(c2c1)OC(C(C)(Cl)Br)C3 (centres undefined) | -51.4% | 29.1 µM [falling, single point] | 29.1 µM [falling, single point]
50 | O=C(COC(=O)c1ccc(O)cc1)Nc1ccccc1-c1ccccc1 | 30.9% | 11.6 µM [rising, partial curve] | 6.51 µM [rising, single point]
51 | Cc1ccc(C(=O)C(C)OC(=O)c2n[nH]c(=O)c3ccccc23)cc1 (centres undefined) | -1.1% |  | 0.259 µM [falling, full curve, poor fit]
52 | C/C(CCC(C)C)=N\Nc1ccc(S(N)(=O)=O)cc1[N+](=O)[O-] |  | 4.61 µM [falling, single point] | 
53 | CCOC(=O)[C@@H](C)N(Cc1ccc(OC)cc1)S(=O)(=O)N(Cc1ccccc1)[C@H](C(=O)OC)C(C)C | -14.8% |  | 
54 | CN(C)c1ccc(CNCCC2CCOC(C)(C)C2)cc1 (centres undefined) | 17.7% | 2.31 µM [rising, single point] | 
55 | COc1cc(OC)cc(-c2n[nH]c(=S)n2-c2ccc3c(c2)OCCO3)c1 | 8.6% | 4.11 µM [falling, single point] | 1.03 µM [falling, partial curve, poor fit]
56 | COc1ccc(CCNC(=O)CN2C(=O)C(=O)N(C3CCCC3)C2=O)cc1OC | -3.29% |  | 6.51 µM [falling, single point]
57 | O=[N+]([O-])c1c(NCCCO)cc(N2CCN(Cc3ccc4c(c3)OCO4)CC2)c2nonc12 | -50.6% | 0.00461 µM [falling, full curve, poor fit] | 1.84 µM [falling, partial curve]
